Screen size: about 53,000 sequences; about 3,700 (7%) were called active.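 Rule for the calls: active = gene knockdowns whose robust z-score for IL-1 alpha signal is at least 2 or at most -2, so actives lie on both sides; inactive = the rest.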 The list shows a part of the results.

This test is described as follows: Components of the Cytosolic LPS Sensing Pathway: Gene Identification via Genome-wide siRNA Screen.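 Note: robust z of the log signal after scaling to non-targeting control siRNA wells of the plate.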 Particulars: RAW264.7 macrophages, IL-1a HTRF, actives lie on both sides, screened at 100 nM (by protocol), cells primed 5 h with Pam3CSK4 first. The gist of the method:
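Three distinct siRNAs per gene were tested singly at 100 nM in RAW264.7 macrophages. Following Pam3CSK4 priming and 24 hour LipidA transfection, IL-1a secretion was read by HTRF.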
Consider GGGCUUCACAAUCCCAUGUTT against Olfr539, for which the z-score was inactive: -1.74. The result for GGAAACAUCCAAGAAAAAUTT against Ap1s2 reads inactive: -0.489; that for CGUGCUAGUCAACACCUCCTT against Cnnm4, inactive: -0.316. To GGACAUCCUGGCUUUCUACTT against Insm1 belongs inactive: -0.114. The result for GCUCUUAAGAGUCACCAAGTT against Mettl27 reads inactive: 0.019; that for CCAAACGAAGGAAGCUGACTT against Taf6l, active: -2.09. With GGGUUUUUUUUUUCCUUCCTT against Hsd17b1, the z-score was inactive: -0.0306. To GGCUCUAUGGAAGUUCUUATT against Kcnh8 belongs inactive: 0.576. To CCAAUUGGAAGAAUCCAGGTT against Gsdmc3 belongs inactive: -0.542; to GGUCAUUUGUUUUCAGGGATT against Tfdp2, active: 3.07. To CGGUCAGAUGUACGAAACCTT against Crygs belongs inactive: -0.36; to CCUACACUAGAAUCCUGAATT against Olfr613, inactive: 0.209; to “GGUACUACUGUGGCUAAGCTT against 1700120K04Rik”, active: 2.71. GGCCAAGCAUGUUUUGUCATT against Cep72: the z-score was inactive: -0.639. To GGUUCUUAAAUCAGCAUUGTT against Dnm3 belongs inactive: -0.511. For the sequence “GGCAACCAUCAAUCUAUUUTT against 5930422O12Rik”, the z-score is inactive: 1.62.

For GGCGCACAAAGCUGUUCUUTT against Zbtb43, the z-score is inactive: -0.87.

For the sequence GGACAGAAUACGUGAGGAGTT against Septin5, the z-score is inactive: -0.427.

With GGACCAUACAUAUUCAAAATT against Aph1b, the z-score was inactive: 0.0294. In the case of GGAUUUGGAAAAUUGAUGCTT against Ahi1, the z-score is inactive: 0.97. Take GGAGAUGCUGUACAAGCAGTT against Zfp212: the z-score was inactive: 0.923.

Consider GCAAUGGGUGACAAUAGCATT against Vamp3, for which the z-score was inactive: -0.426. The result for GGACAGAUUCCGCAUUGAGTT against Mospd3 reads inactive: 0.0389; that for CGCAGUACCUAUUUGAGCGTT against Hs6st1, inactive: 1.62; that for GGUAGGGUGGACACAACUCTT against Gpsm3, inactive: -1.32. The result for GGGCCAUUUCAGCUUUUCUTT against Mei1 reads inactive: -0.801; that for CCCGGAGAGUCAUUUGUGUTT against Cpsf4, inactive: 0.435; that for GGAUGAUUAUUGGAGCUAUTT against Vtn, inactive: 0.128. The result for GCAAAGAUCCAAAUAUUGUTT against Pdia3 reads inactive: 0.615; that for GGUCAGAACUUGAUGCUGCTT against Fgr, inactive: 0.159; that for GGUUACGAGAGAUGUUUGGTT against Sar1b, inactive: 1.98. Turning to GGAAGUUCAGAUUUGCUACTT against Hes6, the z-score was inactive: -0.231. To GCCAUUCUCCAACAAUCGATT against Evc belongs inactive: -1.69; to GCCGCCUGCUAUUUUUCCUTT against Lpcat4, inactive: 0.71. The result for GGACGUGCUCAAGUUCAUCTT against Ift172 reads inactive: 0.519; that for GUGAUGGUUGAUGACCCACTT against H2-K1, inactive: 0.116. The result for GGUGGUCUACUUCACCGCATT against Slc6a20a reads inactive: 0.466; that for GGGCAGAUCUAAAACCUUCTT against Olfr935, inactive: 0.848. With GAUUACAGACAGUGGAAAATT against Ndufb3, the z-score is inactive: 0.307. The result for GGGAAAAUGUGGGAAUUUUTT against Ormdl1 reads inactive: 0.539; that for GGACUGAAGGGAGAUUUUUTT against Fstl3, inactive: -0.351; that for GCCUAUGACAUCUCCGUACTT against Alx3, inactive: 0.718. To CCAAAUCCCAUCGAGUUCCTT against Dpy30 belongs inactive: 0.678; to GCUUGUGGACUACCAUAAGTT against Ptk6, inactive: -0.635; to GAAGGACACCCUUAUAUUUTT against Olfr1216, inactive: 0.892. Regarding CCAAUUACGAGACUCUCAUTT against Zfp786, the z-score was inactive: -0.00661. The result for GGAUGUCUCCAUGAAGGAATT against Ccnb2 reads inactive: -1.12.

For the sequence GGCCAGAAAACAUGCUUUATT against Pbx1, the z-score is inactive: 0.252. The result for GAUCUAAGAAUGCCUGUGGTT against Lyz1 reads inactive: -1.72; that for GGAAGUGGCUAUGACAGAGTT against Atp1a3, inactive: -1.71; that for GGCAAAAAAAGGCUUUAUUTT against Nde1, inactive: -1.04.

In the case of GGAGAAGAAAGAAAAGCUUTT against Nusap1, the z-score was inactive: -1.74. Consider UUAUAGGCCUAUUGGUACATT against Olfr1208, for which the z-score is inactive: -0.185.

Take GGAAAUGGACUGUUUAGGCTT against Fgf15: the z-score is inactive: 0.00302.

For GGAGACCAUCCAAUUAUGATT against Naa35, the z-score is inactive: -1.28. Take GGAGUUCUUCUGGACCUCATT against Ccl22: the z-score was inactive: -1.31.

For GGAAGAACGCGUAGAUAAGTT against Anks1, the z-score was inactive: 1.58. The result for GGAAAACACCUACCUGUGGTT against Slc25a3 reads inactive: -1.48. To GCAAUACCUUCUGACACAGTT against Eral1 belongs inactive: -0.0869; to GCAUCAUGAUACGAAGCAGTT against Sfi1, inactive: -0.74; to CCUCAUUCAAGAAACCUCATT against Comtd1, inactive: -1.13. To GCAUCUUAACACAUGUAAATT against Zfp369 belongs inactive: -0.834. As for GCUUUCCCUUAGGCACUUUTT against Anapc15, the z-score is inactive: -0.33. To GGUUUAUGAACUGACUUUGTT against Htt belongs inactive: 0.0107; to GCUUGAUUUUUGACAGAGATT against Mdh1b, inactive: 1.48. The result for GGUGCAAAGCUUGAAAAUGTT against Gpr150 reads inactive: -0.324. To CCAAUUCACGUAUGACAAUTT against C3ar1 belongs inactive: 0.3; to GGCAGAAGACUUGGUGAUCTT against Ppm1m, inactive: 0.0651.
